Measured values published in publication PMC7987202.
Like-named read-outs stand apart in the source and are kept apart here. Results are given in words; binding and its absence hold for the method and conditions named. In cells and extracts the contact can be indirect. A yes stands for co-enrichment or nearness to the bait. Other partners may have been found. For some assays here: No binding means not detected with the bait. For some assays here: Where a sequence is shown, tags or fusion partners need not be part of it.

T1: Ccdc113-HA-BirA* (Tetrahymena thermophila) (UniProt Q22KK0)
T1 sequence: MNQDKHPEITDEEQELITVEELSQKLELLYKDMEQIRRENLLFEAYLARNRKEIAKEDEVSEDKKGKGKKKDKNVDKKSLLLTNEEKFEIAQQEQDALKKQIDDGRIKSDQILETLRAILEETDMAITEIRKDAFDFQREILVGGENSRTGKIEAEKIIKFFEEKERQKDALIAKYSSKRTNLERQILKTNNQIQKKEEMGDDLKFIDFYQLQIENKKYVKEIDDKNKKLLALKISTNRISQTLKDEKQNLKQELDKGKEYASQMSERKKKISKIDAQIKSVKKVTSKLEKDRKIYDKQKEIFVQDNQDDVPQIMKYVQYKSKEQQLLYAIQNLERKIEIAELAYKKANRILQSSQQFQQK

T2: Ccdc96-HA-BirA* (Tetrahymena thermophila) (UniProt I7M6D6)
T2 sequence: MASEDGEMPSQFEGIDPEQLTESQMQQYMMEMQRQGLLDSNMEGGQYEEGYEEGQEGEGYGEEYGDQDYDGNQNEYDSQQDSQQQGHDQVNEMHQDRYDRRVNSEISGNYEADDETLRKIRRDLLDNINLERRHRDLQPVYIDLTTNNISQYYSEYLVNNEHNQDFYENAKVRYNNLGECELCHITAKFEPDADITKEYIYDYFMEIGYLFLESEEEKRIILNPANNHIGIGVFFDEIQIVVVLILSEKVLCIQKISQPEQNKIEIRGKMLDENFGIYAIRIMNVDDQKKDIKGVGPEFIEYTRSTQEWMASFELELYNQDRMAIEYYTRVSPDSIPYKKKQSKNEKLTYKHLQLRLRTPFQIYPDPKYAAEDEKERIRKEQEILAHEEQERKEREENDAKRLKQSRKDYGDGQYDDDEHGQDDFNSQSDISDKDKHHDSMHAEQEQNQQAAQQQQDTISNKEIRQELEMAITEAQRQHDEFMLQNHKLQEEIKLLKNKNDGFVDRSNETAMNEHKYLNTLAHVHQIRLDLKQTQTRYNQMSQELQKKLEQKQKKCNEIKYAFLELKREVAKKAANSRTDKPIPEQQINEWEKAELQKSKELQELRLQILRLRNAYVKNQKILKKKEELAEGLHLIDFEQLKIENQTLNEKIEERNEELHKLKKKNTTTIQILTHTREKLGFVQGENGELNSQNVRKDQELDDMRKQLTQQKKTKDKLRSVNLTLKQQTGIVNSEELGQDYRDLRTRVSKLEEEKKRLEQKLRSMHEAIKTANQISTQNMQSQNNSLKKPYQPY

T3: BirA*-HA-Ccdc96 (Tetrahymena thermophila) (UniProt I7M6D6)
T3 sequence: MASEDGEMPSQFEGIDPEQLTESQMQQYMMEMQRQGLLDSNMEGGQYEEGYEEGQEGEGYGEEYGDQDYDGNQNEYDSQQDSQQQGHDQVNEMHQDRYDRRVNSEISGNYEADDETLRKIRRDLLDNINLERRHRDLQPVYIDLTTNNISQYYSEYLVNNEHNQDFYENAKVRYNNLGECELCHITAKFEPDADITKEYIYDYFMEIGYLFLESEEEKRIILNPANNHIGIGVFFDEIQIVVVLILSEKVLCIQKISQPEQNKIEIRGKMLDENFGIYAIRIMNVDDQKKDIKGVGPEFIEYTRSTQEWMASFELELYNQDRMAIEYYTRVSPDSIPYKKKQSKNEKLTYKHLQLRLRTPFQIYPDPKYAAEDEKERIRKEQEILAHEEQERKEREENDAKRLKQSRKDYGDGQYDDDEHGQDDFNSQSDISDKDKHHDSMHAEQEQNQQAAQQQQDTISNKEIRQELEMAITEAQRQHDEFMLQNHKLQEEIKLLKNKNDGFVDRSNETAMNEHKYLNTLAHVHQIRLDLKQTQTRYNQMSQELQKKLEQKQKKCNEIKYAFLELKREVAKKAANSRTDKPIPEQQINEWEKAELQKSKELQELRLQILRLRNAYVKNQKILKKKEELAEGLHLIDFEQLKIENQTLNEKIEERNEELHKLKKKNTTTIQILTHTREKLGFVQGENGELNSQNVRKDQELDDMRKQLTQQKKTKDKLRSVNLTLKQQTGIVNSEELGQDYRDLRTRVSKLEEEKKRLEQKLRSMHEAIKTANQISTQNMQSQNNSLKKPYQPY

T4: Ccdc113-3HA (Tetrahymena thermophila) (UniProt Q22KK0)
T4 sequence: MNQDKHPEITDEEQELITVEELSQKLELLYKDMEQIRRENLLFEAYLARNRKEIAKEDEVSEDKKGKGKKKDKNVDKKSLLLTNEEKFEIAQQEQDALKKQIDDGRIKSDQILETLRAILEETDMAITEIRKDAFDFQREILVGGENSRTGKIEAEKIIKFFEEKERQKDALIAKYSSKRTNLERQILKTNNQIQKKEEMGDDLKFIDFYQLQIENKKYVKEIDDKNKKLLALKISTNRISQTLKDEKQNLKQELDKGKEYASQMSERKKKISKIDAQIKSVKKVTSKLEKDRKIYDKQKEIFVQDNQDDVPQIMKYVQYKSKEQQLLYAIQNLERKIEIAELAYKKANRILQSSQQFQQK


Experiments:
[1] = target: T1, Ccdc113-HA-BirA* (Tetrahymena thermophila); experiment: proximity labelling; BioID: cells expressing the BirA*-tagged bait starved overnight in 10 mM Tris-HCl pH 7.5, then 50 uM biotin for 4 h at 30 C; axonemes lysed in 0.4% SDS, 500 mM NaCl; biotinylated proteins bound to streptavidin Dynabeads and identified by mass spectrometry; wild-type cells as control
[2] = target: T2, Ccdc96-HA-BirA* (Tetrahymena thermophila); experiment: as above
[3] = target: T3, BirA*-HA-Ccdc96 (Tetrahymena thermophila); experiment: as above
[4] = target: T4, Ccdc113-3HA (Tetrahymena thermophila); experiment: affinity purification with mass spectrometry; 0.5 M KI extract of axonemes from cells with Ccdc113-3HA at the native level, diluted and concentrated, anti-HA agarose overnight at 4 C, washed with 10 mM Tris-HCl pH 7.4, 150 mM NaCl, 0.5 mM EDTA; wild-type cilia as control
[5] = target: T4, Ccdc113-3HA (Tetrahymena thermophila); experiment: as above; remark: listed apart in the source

Molecule | binding [3] | also measured
Cfap299 (Tetrahymena thermophila) |  | binding [1]: no binding; binding [2]: no binding
Drc2 (Tetrahymena thermophila) | no binding | 
Act1 (actin) (Tetrahymena thermophila) | no binding | binding [4]: binds
Drc4a (Tetrahymena thermophila) | no binding | 
Drc4b (Tetrahymena thermophila) | no binding | 
Fap57B (Tetrahymena thermophila) | no binding | 
Drc1 (Tetrahymena thermophila) | no binding | 
Fap57C (Tetrahymena thermophila) | no binding | 
Drc3 (Tetrahymena thermophila) | no binding | 
Fap251 (protein, UniProt Q24DE2 1-996) MYQQEEYEVNNEGQEDVSKINALNLKWTLGFNFQLTDGVHNLTNEKRKEIFYPVAHTGVIYDYENNTQRLLQGHCNRITATAYCKFSDIIVTADCGPDSMLVVWDASTGIPKKTIFEPHPNGCQALDISQDGQFIVTLSKEANTDTDVQSLSLWEWNKDDEPCLITNEFDRRIKDYQYFVRFNSDDNTEFATTGKTRIVFWRREGEQKGFNYYSPGNIPSLKVLTQTVFIPDNTQVVTGTTDGHIIVWDISLIIEKVDTPKERRAIKLVDLMNKSKKPDGKKGSNSINILKIQDNYLVIGSSNGSIRFYDFQYRIIAWFEDAIIGSISNISFANTPMIEDNEDEDGFDDERKDKGENEPKFICPDFIVVDLDATITMLNYKLFEELDDEKKKGTTLMKSIVSPIIAMSCRPNSNVIGICCENGYLYEWNFQEKSSVLSILRVFDTDKENIPNCIDYSPDGNWLSVATKSGKIHIFDCKEKQWQNSVLEVSENEQGKPKVNMQVFSSDSKNLATMDADYAVSLFTIDHRQFDVNIPEKEWQFVGKHRIHHSEIKSIAFGESKNENDKKYYRLFSIGADMKMVEYEVLEIDYSKQKEKGQQINYIDRLKLKSIYPIEQETIPTACIWYPINMYKEDVLLTVNEEFKIKLWQFMKDNFKFCKKTCLGPIYGGAINKLLILNQNDAQNDYQDKYLAYSTKEKVVGIIKLPLEGNPNQTMGLIAHPDKITSISCSNDGKHFFSSGSDDYCVNVWSVNVQALEQIFATNPNEDPYPKLLEGGEDGQTHQDLKNFFYYSQIRSKDEHTTKARKLDGKVPLIAIPDMMRSMGYYPTNKEIENMQNEIRFSKYLDPGEQVEELDLNMFLKLFVNHRPVQGIGKSKIAESLNTLTKSLSDSAKEIAEQAKGQSVQPKTYNIDGIGEISLQDLKKILTTEGERMTNEEFDECLKILCGENEDQIPQQINVNNLCEDILGFEDLEGEERDDNIEDQYEDEENEEYDQD | no binding | binding [5]: no binding
Fap57A (protein, UniProt Q234G8 1-1293) MAQQIVQSLQDEGTQSLKLDFSMKYVLGYRSDFKNNIFQYTMNDQNRIIYPAGNTIVISNNENKQQFINCIPGTKGITCMTLSPSKRLLAWSEDCDSGIIVVFDLIKLDKLEKAKNQNYQEPSDKDKLDKQAEKDRRDRFEKEKREKIDKLQKEVKRIITTLDCKSRHYVALDFNKINEKRIVALSCAPDWQLIYFQLDKQKTVIINQVPLKVGDNMRYTHCFFHPKEEDFIVAIGTGAIKPYKLGADGQFKQKDPPFVKKESKDQAHSPNYLSYCILQDGYMVIGTDMGEILLFQPSCEFKTILASSPKNEQFAIQCIQPYSKGFLVGGKECTILFYEKDVDLKNPYKLCSKKIQFRDMKAMITSLLLTPNEEKLIVGVDSGQLLQVPFTSDSMQLNEENSKCEPLFMPFHSDKITGLDVCIRKSLVATCSVDKTVRIWNYSDNQLENSKEFEEEAYAVAFHPSGFHIIVAFTEKIRLMNIFENDLISFKELSVKNCREIQFSNGGHFFAITNVSMVQVFQFYTGENPSNLVFRGSGKVRTIFWEEDDQGFYTGSTDGLVIYWRVDDNGPQKTQIAQFNNLIITSITGLYNPDTTTQGLERILFVSGVSSSQENEGEKCVYKLVISCRQDKEGREITDNTLKKIYYVSQPEQKIFTGTNVSQIAISHSKKLFFFATEDRPGAIRITKYPFTNEIMEIQSHFGPITRMRISFKDNYIFTAGEDGALIIYENKEKEYQVKIENESVEAAAEEFLIPRDQYNDQKREIEKLKRQLNEERMKQEQQIKEKMKDRDDKINQLENQQKDSDNRDLNKYQLLEREKNEMIESYEEKKRMMKLQHENNKRTIENEYKKKIALEMSRNEELAREKEKEEKRFQSEIQQYQEEHLRQMEEKRRHYEEQLAIEKQLYNDLHLKREELAYKFDQKRNKLEMEAEELIDQLKEENESKMQVLFKNLEKAEIKKMDRRNDYDTEAQKLEEQKSKLKGTMEDITSIQETNKMLQKEKESHAKEIDEREKTIRDKGRRIYELKKKTQELEKFKFVLDYKIKELKRDIGPKEEEIAKMKEQIANMNSEILHFKRTNANLKLIVTDLRLRQEGMKKEIEDQSKVIQQNNQYIKAFEQDMSDCHQHIADYKKLKQKVLNLYNQYVQGDDSKKKRLENNDQQKEIMKERAHLETSVNNLKIKHDKNQSVHKSDTTIIMKHNTFLIFEINHLKREKKKILEDKAKMLMQATQKKKQDGTSRVDIDSLEKEIQKNEDEKRKLKEDIEKLRQYNDQIKNQLRQQIQNQQDDDEDN | no binding | 
